The list shows a part of the results. The data scatter; read single values as rough.
What was measured:
[1] = compound: ClCC(=O)N[C@@H]1CCCc2ccccc12; experiment: log2 mean competition ratio of IA-DTB cysteine labelling (DMSO/compound) (log2 ratio); higher = stronger cysteine engagement by compound; conditions: treatment time: 4 h, cell line lysate: HEK293T
Protocol: (§1)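 IA-DTB competitive cysteine chemoproteomics in HEK293T RIPA lysate. Lysates were treated with compound 29 or 30 at 50 or 200 µM for 4 h, then IA-DTB (500 µM, 1 h), trypsin-digested, NeutrAvidin-enriched and analysed by diaPASEF. Competition ratio = intensity DMSO / intensity compound (n=4 treated, n=64 DMSO); binding: mean log2 CR ≥ 1 and p ≤ 0.05 plus QC filters. Target is the cysteine site.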

[2] = compound: ClCC(=O)N[C@H]1CCCc2ccccc12; experiment: as above; conditions: treatment time: 4 h, cell line lysate: HEK293T
Protocol: as §1

Row | Target | log2 mean competition ratio ([1]; 50 µM) | log2 mean competition ratio ([1]; 200 µM) | log2 mean competition ratio ([2]; 50 µM) | log2 mean competition ratio ([2]; 200 µM)
1 | NIPBL C2557 (UniProt Q6KC79) | -0.139 | -0.0445 | -0.0561 | -0.0555
2 | NEURL4 C1324 (UniProt Q96JN8) | -0.0319 | -0.435 | 0.0966 | -0.271
3 | NEFL C322 | -0.232 | 0.00049 | 0.0968 | 0.129
4 | NCAPD2 C1000 (UniProt Q15021) | 0.248 | -0.103 | -0.188 | -0.0587
5 | NELFA C471 (UniProt Q9H3P2) | -0.157 | -0.0873 | 0.08 | -0.0797
6 | NCOA3 C769 (UniProt Q9Y6Q9) | 0.023 | -0.188 | -0.124 | -0.0982
7 | NDUFV1 C142 | 0.0192 | -0.0991 | -0.205 | -0.153
8 | NMRK1 C125 (UniProt Q9NWW6) | -0.145 | -0.114 | -0.0485 | -0.0241
9 | NFKB2 C83 (UniProt Q00653) | 0.105 | -0.0449 | 0.427 | 0.408
10 | NMD3 C250 (UniProt Q96D46) | 0.144 | -0.0977 | 0.129 | -0.12
11 | NEDD1 C314 (UniProt Q8NHV4) | 0.306 | -0.217 | 0.282 | -0.507
12 | NFKB1 C61 (UniProt P19838) | 0.474 | 0.953 | -0.15 | -0.128
13 | NCAPG C177 (UniProt Q9BPX3) | -0.182 | -0.0928 | 0.621 | 0.0084
14 | NFRKB C29 (UniProt Q6P4R8) | -0.158 | 0.293 | -0.139 | 0.371
15 | NF1 C2371 (UniProt P21359) | 0.104 | 0.19 | -0.503 | 0.0104
16 | NFKB2 C738 (UniProt Q00653) | -0.179 | 0.18 | -0.156 | 0.142
17 | NIN C1912 (UniProt Q8N4C6) | -0.213 | 0.157 | -0.214 | 0.183
18 | NOC2L C585 (UniProt Q9Y3T9) | 0.105 | 0.18 | 0.044 | 0.206
19 | NKRF C386 (UniProt O15226) | 0.0355 | 0.135 | -0.449 | -0.0536
20 | NELFB C235 (UniProt Q8WX92) | 0.284 | -0.219 | -0.0109 | -0.242
21 | NBAS C1634 (UniProt A2RRP1) | -0.316 | -0.181 | -0.298 | -0.17
22 | NOA1 C505 (UniProt Q8NC60) | 0.261 | 0.252 | 0.246 | 0.0984
23 | NCOR1 C987 (UniProt O75376) | -0.237 | 0.584 | 0.0266 | 0.642

Row | Target | log2 mean competition ratio ([1]; 50 µM) | log2 mean competition ratio ([1]; 200 µM) | log2 mean competition ratio ([2]; 50 µM) | log2 mean competition ratio ([2]; 200 µM)
24 | NDUFB7 C90 (UniProt P17568) | 0.0348 | 0.395 | 0.0887 | 0.339
25 | NASP C84 (UniProt P49321) | 0.0382 | -0.0047 | 0.287 | 0.118
26 | NEIL3 C579 | 0.0395 | 0.297 | -0.18 | 0.229
27 | NF1 C434 (UniProt P21359) | 0.14 | 0.0419 | -0.0151 | 0.0217
28 | NBN C478 (UniProt O60934) | -0.275 | 0.237 | -0.113 | 0.325
29 | NEK9 C626 (UniProt Q8TD19) | 0.037 | 0.0117 | 0.0839 | -0.0106
30 | NDUFA2 C58 (UniProt O43678) | -0.118 | 0.0235 | 0.308 | 0.0971
31 | NCAPD2 C596 (UniProt Q15021) | 0.538 | -0.102 | -0.221 | 0.536
32 | NCOA3 C716 (UniProt Q9Y6Q9) | -0.112 | -0.535 | 0.308 | -0.17
33 | NKRF C424 (UniProt O15226) | 0.225 | -0.107 | 0.128 | -0.224
34 | NCDN C725 (UniProt Q9UBB6) | -0.0958 | 0.213 | -0.438 | 0.368
35 | NCAPD3 C952 (UniProt P42695) | -0.115 | 0.0722 | -0.381 | -0.045
36 | NEK4 C326 (UniProt P51957) | 0.0499 | -0.108 | 0.0386 | -0.146
37 | NBAS C897 (UniProt A2RRP1) | 0.39 | 0.0666 | -0.133 | -0.0827
38 | NME2 C145 (UniProt P22392) | -0.064 | -0.212 | 0.028 | -0.0717
39 | NEDD1 C66 (UniProt Q8NHV4) | 0.575 | 0.313 | 0.534 | -0.0348
40 | NDUFAB1 C140 (UniProt O14561) | 0.198 | -0.488 | -0.264 | -0.519
41 | NCK1 C139 (UniProt P16333) | -0.0115 | -0.0445 | -0.322 | 0.0884
42 | NHSL1 C1471 (UniProt Q5SYE7) | -0.226 | -0.367 | -0.0421 | -0.438
43 | NDUFAF7 C148 (UniProt Q7L592) | -0.407 | -0.359 | -0.883 | -0.146
44 | NBPF19;NBPF26;NBPF20;NBPF9;NBPF1;NBPF8;NBPF12;NBPF14;NBPF10 C589(C833)(C1077)(C1321)(C1565)(C1809)(C2053)(C2297)(C2541)(C2785)(C3029)(C3273)(C3517)(C3761);(C820);(C245)(C489)(C733)(C977)(C1221)(C1709)(C1953)(C2197)(C2441)(C2685)(C2929)(C3173)(C3417)(C3661)(C3905)(C4393)(C4562)(C4881)(C5125);(C1029);(C1132);(C825);(C1131)(C1375);(C520)(C839);(C860)(C1104)(C1348)(C1592)(C1836)(C2080)(C2324)(C2568)(C2812)(C3056)(C3300)(C3544)(C3713) | 0.147 | 0.0821 | -0.0236 | -0.0887
45 | NCOR1 C994 (UniProt O75376) | 0.0223 | 0.155 | 0.12 | 0.434

Complete entries from above. Order of values: log2 mean competition ratio ([1]; 50 µM) | log2 mean competition ratio ([1]; 200 µM) | log2 mean competition ratio ([2]; 50 µM) | log2 mean competition ratio ([2]; 200 µM)
NFKB2 C83 (UniProt Q00653) as listed: 0.105 | -0.0449 | 0.427 | 0.408
NCK1 C139 (UniProt P16333) as listed: -0.0115 | -0.0445 | -0.322 | 0.0884
NF1 C434 (UniProt P21359) as listed: 0.14 | 0.0419 | -0.0151 | 0.0217

Reference: the supplement of paper PMC11732987, “Enantioselective OTUD7B fragment discovery through chemoproteomics screening and high-throughput optimisation” (Communications Chemistry, 2025)
